This is one part of the list.
Experiments:
Assay in all cases: log2 fold change, soluble protein after heating vs DMSO (PISA); higher = thermal stabilisation; K562 cells, 10 uM, 30 min; active = over 0.2 and 3.5 SD of the protein, either way, in both replicates (recomputed)
bafetinib = compound: Cc1ccc(NC(=O)c2ccc(CN3CC[C@H](N(C)C)C3)c(C(F)(F)F)c2)cc1Nc1nccc(-c2cncnc2)n1 [bafetinib]
Summary of the method: (§1)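 K562 cells (2×10^6 cells/mL) were treated with 10 μM compound for 30 min, and aliquots were heated for 3 min over 48°C-58°C. Pooled aliquots were extracted in PBS with 0.5% NP-40 at 4°C, and the supernatant after 21,000xg for 90 min was measured by TMTpro 16plex LC-MS/MS with channel sums equalised. Reported thermal stability, relative to control samples and from duplicates, is a log2 fold change.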

Amino acid sequences for entries named in this document (tags omitted). A change or cut given only in a name is not applied to a line headed by its entry.
UniProt P0DMU9: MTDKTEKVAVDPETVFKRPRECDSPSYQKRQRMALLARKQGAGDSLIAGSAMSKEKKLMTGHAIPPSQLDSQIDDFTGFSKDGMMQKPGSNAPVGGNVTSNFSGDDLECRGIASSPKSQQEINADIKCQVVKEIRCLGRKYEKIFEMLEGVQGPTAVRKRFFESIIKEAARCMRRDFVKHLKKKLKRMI
UniProt Q8WVC6: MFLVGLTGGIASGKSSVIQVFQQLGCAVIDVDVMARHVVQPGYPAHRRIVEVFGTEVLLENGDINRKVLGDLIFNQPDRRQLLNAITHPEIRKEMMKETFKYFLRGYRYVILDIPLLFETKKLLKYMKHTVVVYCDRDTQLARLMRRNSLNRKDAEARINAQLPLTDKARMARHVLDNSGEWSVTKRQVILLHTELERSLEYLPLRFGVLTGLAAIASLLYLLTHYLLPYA
UniProt P49711: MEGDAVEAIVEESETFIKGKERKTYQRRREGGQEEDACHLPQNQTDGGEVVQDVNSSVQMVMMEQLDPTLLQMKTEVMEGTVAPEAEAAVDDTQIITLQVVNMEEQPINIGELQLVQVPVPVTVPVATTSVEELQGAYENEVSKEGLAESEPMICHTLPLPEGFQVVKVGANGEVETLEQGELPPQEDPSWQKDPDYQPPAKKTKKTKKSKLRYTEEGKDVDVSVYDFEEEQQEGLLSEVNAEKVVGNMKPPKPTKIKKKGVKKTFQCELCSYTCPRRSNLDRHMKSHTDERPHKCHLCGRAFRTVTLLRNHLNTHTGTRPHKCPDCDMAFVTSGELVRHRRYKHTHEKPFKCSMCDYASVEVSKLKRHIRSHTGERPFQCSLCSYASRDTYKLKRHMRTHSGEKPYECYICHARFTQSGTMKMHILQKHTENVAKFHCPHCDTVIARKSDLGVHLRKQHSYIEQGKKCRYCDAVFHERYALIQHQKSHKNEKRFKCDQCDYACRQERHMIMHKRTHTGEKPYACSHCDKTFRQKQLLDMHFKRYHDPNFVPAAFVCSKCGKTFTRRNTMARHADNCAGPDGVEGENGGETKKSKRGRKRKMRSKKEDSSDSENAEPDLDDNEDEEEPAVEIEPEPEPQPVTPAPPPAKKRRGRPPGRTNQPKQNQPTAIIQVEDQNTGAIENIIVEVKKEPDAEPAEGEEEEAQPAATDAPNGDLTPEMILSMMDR
UniProt P51397: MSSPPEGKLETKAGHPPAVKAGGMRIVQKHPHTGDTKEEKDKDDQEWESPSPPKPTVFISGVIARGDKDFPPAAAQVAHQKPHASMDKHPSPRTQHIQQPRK
UniProt P10619: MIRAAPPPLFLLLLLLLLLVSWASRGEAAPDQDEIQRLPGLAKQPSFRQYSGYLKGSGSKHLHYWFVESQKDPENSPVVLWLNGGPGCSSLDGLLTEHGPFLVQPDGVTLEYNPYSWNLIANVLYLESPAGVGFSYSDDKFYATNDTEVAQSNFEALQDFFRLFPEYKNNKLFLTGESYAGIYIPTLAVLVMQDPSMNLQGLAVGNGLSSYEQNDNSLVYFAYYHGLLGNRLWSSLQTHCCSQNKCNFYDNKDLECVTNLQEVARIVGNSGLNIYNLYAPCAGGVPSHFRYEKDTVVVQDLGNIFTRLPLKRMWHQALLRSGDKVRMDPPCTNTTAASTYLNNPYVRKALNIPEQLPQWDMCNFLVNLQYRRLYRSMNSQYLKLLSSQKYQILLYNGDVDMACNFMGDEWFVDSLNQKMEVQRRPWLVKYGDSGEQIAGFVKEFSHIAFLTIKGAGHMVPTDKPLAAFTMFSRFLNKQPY
UniProt Q1MSJ5: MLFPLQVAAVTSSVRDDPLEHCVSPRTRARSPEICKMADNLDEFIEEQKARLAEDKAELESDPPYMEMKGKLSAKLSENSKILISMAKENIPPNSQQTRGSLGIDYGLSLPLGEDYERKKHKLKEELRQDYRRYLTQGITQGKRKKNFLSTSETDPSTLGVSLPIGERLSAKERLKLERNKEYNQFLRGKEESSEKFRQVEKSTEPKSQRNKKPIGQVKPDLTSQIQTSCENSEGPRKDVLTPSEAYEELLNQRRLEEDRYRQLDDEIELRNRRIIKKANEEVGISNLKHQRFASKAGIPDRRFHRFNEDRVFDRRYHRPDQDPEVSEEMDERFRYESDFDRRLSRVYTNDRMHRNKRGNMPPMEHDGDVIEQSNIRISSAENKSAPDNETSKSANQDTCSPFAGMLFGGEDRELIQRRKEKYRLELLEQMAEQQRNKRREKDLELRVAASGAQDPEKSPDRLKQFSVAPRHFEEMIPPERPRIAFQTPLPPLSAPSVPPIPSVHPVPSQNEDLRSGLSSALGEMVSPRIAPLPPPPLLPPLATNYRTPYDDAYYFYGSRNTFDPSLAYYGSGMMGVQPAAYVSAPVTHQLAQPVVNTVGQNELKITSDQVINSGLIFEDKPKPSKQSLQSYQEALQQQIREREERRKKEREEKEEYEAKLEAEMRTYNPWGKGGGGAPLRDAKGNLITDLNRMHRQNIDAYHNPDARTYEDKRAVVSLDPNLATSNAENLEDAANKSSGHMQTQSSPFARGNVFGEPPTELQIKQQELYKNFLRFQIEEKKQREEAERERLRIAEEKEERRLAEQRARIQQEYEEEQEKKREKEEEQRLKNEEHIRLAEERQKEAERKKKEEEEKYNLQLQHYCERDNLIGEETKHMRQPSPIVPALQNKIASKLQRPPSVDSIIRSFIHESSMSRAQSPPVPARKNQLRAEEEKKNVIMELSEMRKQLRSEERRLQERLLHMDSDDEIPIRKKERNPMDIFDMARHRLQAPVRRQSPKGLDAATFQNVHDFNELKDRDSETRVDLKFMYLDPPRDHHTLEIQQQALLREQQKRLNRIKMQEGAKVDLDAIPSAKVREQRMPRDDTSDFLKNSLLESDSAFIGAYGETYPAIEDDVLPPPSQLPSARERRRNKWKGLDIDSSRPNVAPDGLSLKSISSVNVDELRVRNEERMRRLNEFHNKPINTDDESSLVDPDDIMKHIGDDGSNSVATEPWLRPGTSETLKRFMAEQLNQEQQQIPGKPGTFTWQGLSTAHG
UniProt Q96GG9: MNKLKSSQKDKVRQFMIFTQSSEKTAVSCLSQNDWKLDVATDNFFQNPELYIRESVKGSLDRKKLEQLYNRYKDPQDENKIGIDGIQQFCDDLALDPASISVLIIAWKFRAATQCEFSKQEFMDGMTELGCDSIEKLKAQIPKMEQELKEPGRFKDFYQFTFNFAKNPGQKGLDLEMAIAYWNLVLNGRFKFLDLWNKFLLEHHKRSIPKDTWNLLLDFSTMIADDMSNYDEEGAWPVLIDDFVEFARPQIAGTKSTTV
UniProt Q2VPK5: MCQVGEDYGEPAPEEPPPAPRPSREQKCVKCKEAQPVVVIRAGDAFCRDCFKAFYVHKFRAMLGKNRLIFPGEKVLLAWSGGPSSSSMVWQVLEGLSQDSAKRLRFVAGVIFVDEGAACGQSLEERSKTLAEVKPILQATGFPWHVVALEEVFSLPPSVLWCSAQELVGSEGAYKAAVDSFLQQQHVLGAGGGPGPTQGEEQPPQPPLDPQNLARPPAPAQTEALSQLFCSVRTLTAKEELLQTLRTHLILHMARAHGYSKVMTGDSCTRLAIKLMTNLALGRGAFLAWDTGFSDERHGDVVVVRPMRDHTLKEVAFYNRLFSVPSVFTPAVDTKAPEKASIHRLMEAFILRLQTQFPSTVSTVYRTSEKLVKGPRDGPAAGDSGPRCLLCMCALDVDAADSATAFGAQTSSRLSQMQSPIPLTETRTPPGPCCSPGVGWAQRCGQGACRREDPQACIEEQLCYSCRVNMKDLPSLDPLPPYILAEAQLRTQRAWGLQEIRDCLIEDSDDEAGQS
UniProt Q14247: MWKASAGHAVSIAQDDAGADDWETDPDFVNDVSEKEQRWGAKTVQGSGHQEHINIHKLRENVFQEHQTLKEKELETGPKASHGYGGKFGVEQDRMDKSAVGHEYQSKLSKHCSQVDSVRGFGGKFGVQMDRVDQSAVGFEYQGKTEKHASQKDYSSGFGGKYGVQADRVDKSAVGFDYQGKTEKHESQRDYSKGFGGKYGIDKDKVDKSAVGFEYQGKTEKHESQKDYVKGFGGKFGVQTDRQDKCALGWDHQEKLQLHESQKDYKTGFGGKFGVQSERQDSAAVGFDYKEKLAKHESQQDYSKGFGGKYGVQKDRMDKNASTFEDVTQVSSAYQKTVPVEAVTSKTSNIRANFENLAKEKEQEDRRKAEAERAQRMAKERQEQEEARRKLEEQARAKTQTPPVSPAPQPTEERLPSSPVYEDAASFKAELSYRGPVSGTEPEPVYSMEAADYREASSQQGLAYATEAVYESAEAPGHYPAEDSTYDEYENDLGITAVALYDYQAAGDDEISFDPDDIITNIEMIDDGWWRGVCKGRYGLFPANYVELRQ
UniProt P01034: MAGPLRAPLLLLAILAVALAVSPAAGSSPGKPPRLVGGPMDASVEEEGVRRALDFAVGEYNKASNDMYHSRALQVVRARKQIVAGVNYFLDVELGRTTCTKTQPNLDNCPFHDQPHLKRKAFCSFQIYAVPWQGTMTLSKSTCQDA
UniProt Q13618, whole entry, looked up: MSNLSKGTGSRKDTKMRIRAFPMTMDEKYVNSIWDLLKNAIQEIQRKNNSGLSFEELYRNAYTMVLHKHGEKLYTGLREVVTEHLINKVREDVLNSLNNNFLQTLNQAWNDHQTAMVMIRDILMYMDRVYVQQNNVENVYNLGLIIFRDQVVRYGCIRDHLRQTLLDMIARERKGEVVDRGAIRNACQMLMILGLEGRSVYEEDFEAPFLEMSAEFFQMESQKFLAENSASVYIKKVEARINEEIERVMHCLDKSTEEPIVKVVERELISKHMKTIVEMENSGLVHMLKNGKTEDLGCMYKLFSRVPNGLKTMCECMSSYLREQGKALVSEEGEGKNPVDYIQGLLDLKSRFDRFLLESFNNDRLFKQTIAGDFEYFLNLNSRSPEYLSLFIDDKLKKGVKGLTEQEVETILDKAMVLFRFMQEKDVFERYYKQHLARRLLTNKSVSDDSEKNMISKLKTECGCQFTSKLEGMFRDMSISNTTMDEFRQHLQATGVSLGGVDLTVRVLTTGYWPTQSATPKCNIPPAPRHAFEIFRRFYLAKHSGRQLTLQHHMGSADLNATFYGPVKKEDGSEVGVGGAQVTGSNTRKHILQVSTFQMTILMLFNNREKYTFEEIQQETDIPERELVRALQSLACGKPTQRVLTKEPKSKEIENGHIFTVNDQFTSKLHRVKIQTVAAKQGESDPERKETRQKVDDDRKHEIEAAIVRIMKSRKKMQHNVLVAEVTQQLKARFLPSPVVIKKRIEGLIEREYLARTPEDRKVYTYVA
UniProt Q96F07, whole entry, looked up: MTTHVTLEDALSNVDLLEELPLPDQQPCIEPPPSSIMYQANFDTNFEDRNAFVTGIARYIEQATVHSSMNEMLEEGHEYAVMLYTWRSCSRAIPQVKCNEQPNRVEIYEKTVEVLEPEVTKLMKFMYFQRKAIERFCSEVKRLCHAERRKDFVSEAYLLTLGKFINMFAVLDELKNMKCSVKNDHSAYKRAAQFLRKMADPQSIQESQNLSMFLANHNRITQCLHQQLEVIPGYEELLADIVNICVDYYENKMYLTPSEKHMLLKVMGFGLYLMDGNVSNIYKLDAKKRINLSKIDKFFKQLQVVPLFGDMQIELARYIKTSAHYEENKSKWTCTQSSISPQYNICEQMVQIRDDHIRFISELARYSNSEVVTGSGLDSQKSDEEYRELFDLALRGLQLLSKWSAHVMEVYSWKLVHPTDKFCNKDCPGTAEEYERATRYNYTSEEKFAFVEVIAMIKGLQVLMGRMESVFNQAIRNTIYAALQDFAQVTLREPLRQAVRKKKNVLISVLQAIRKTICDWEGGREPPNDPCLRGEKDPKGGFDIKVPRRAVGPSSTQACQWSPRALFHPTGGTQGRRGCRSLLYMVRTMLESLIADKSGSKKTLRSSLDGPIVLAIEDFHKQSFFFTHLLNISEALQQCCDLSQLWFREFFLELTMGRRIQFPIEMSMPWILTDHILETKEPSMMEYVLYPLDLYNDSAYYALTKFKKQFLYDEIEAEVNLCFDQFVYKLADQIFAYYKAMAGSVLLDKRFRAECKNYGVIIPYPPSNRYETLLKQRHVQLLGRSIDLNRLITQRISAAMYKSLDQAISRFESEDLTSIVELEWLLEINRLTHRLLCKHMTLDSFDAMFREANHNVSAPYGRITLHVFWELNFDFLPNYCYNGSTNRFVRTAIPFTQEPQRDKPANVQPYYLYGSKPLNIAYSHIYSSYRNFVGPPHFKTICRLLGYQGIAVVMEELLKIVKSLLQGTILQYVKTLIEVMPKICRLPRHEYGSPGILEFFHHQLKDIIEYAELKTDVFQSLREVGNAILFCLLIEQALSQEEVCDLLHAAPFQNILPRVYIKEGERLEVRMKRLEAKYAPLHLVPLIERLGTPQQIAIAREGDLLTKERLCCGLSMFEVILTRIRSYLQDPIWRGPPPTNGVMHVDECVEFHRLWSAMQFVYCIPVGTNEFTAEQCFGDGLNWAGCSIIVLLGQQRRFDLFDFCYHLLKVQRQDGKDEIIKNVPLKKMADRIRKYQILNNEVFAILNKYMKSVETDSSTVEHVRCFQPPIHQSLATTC

[1] = compound: Cc1cccc(CC(=O)N2CCc3c2ccc(-c2cn(C)c4ncnc(N)c24)c3F)n1
Summary of the method: as §1

nilotinib = compound: Cc1cn(-c2cc(NC(=O)c3ccc(C)c(Nc4nccc(-c5cccnc5)n4)c3)cc(C(F)(F)F)c2)cn1 [nilotinib]
Summary of the method: as §1

[2] = compound: Cc1nc(Nc2n[nH]c3c2CN(C(=O)N[C@H](CN(C)C)c2ccccc2)C3(C)C)c2sccc2n1
Summary of the method: as §1

dasatinib = compound: Cc1nc(Nc2ncc(C(=O)Nc3c(C)cccc3Cl)s2)cc(N2CCN(CCO)CC2)n1 [dasatinib]
Summary of the method: as §1

[3] = compound: Cc1ncc(-c2ccnc(Nc3ccc(S(C)(=O)=O)cc3)n2)n1C(C)C
Summary of the method: as §1

[4] = compound: Cn1cc(-c2ccc3c(c2)CCN3C(=O)Cc2cccc(C(F)(F)F)c2)c2c(N)ncnc21
Summary of the method: as §1

[5] = compound: Cn1cc(-c2ccc3nnc(C(F)(F)c4ccc5ncccc5c4)n3n2)cn1
Summary of the method: as §1

tipifarnib = compound: Cn1cncc1[C@@](N)(c1ccc(Cl)cc1)c1ccc2c(c1)c(-c1cccc(Cl)c1)cc(=O)n2C [tipifarnib]
Summary of the method: as §1

mubritinib = compound: FC(F)(F)c1ccc(/C=C/c2nc(COc3ccc(CCCCn4ccnn4)cc3)co2)cc1 [mubritinib]
Summary of the method: as §1

[6] = compound: NC(=O)Nc1cc(-c2cccc(F)c2)sc1C(=O)N[C@H]1CCCNC1
Summary of the method: as §1

[7] = compound: NC(=O)c1cnc(N[C@@H]2CCCC[C@@H]2N)nc1Nc1cccc(-n2nccn2)c1
Summary of the method: as §1

[8] = compound: NC1(c2ccc(-c3nc4ccn5c(=O)[nH]nc5c4cc3-c3ccccc3)cc2)CCC1
Summary of the method: as §1

[9] = compound: NCC(=O)Nc1ccc(-n2nc(C(F)(F)F)cc2-c2ccc3c(ccc4ccccc43)c2)cc1
Summary of the method: as §1

entinostat = compound: Nc1ccccc1NC(=O)c1ccc(CNC(=O)OCc2cccnc2)cc1 [entinostat]
Summary of the method: as §1

vorinostat = compound: O=C(CCCCCCC(=O)Nc1ccccc1)NO [vorinostat]
Summary of the method: as §1

citarinostat = compound: O=C(CCCCCCNC(=O)c1cnc(N(c2ccccc2)c2ccccc2Cl)nc1)NO [citarinostat]
Summary of the method: as §1

silmitasertib = compound: O=C(O)c1ccc2c(c1)nc(Nc1cccc(Cl)c1)c1ccncc12 [silmitasertib]
Summary of the method: as §1

[10] = compound: O=C1NC(=O)C(c2cnc3ccccn23)=C1c1cn2c3c(cc(F)cc13)CN(C(=O)N1CCCCC1)CC2
Summary of the method: as §1

[11] = compound: c1cc(OCCN2CCCCC2)cc(-c2n[nH]c3ccc(-c4nnc[nH]4)cc23)c1
Summary of the method: as §1

Target | log2 fold change (bafetinib) | log2 fold change [1] | log2 fold change (nilotinib) | log2 fold change [2] | log2 fold change (dasatinib) | log2 fold change [3] | log2 fold change [4] | log2 fold change [5] | log2 fold change (tipifarnib) | log2 fold change (mubritinib) | log2 fold change [6] | log2 fold change [7] | log2 fold change [8] | log2 fold change [9] | log2 fold change (entinostat) | log2 fold change (vorinostat) | log2 fold change (citarinostat) | log2 fold change (silmitasertib) | log2 fold change [10] | log2 fold change [11]
CT45A10 (UniProt P0DMU9) | inactive: 0.117 | inactive: -0.026 | inactive: -0.013 | inactive: 0.035 | inactive: -0.045 | inactive: -0.043 | inactive: -0.079 | inactive: -0.123 | inactive: 0.172 | inactive: -0.07 | inactive: 0.056 | inactive: 0.046 | inactive: 0.08 | inactive: -0.15 | inactive: -0.082 | inactive: -0.002 | inactive: -0.063 | inactive: 0.072 | inactive: 0.189 | inactive: -0.082
DCAKD (UniProt Q8WVC6) | inactive: -0.165 | inactive: -0.008 | inactive: -0.11 | inactive: -0.075 | inactive: -0.024 | inactive: 0.107 | inactive: 0.012 | inactive: 0.02 | inactive: 0.029 | inactive: -0.053 | inactive: -0.043 | inactive: -0.059 | inactive: -0.078 | inactive: 0.026 | inactive: -0.051 | inactive: 0.009 | inactive: 0.003 | inactive: -0.009 | inactive: -0.045 | inactive: -0.081
CYB5B, A0A499FJ32 | inactive: 0.07 | inactive: 0.025 | inactive: -0.111 | inactive: 0.112 | inactive: 0.089 | inactive: -0.06 | inactive: 0.03 | inactive: 0.032 | inactive: -0.284 | inactive: -0.019 | inactive: 0.004 | inactive: 0.013 | inactive: 0.095 | inactive: 0.005 | inactive: 0.032 | inactive: -0.02 | inactive: -0.087 | inactive: 0.023 | inactive: 0.005 | inactive: -0.097
CTCF (UniProt P49711) | inactive: 0.195 | inactive: -0.055 | inactive: 0.166 | inactive: -0.144 | inactive: 0.171 | inactive: 0.002 | inactive: -0.467 | inactive: -0.163 | inactive: 0.17 | inactive: -0.091 | inactive: 0.086 | inactive: 0.219 | inactive: 0.23 | inactive: 0.188 | inactive: -0.076 | inactive: 0.001 | inactive: -0.122 | inactive: 0.098 | inactive: 0.226 | inactive: -0.15
CUL4A (UniProt Q13619) | inactive: -0.035 | inactive: 0.03 | inactive: -0.033 | inactive: -0.024 | inactive: -0.059 | inactive: -0.002 | inactive: 0.011 | inactive: 0 | inactive: -0.082 | inactive: 0.051 | inactive: -0.02 | inactive: -0.026 | inactive: -0.064 | inactive: -0.068 | inactive: 0.034 | inactive: 0.003 | inactive: 0.045 | inactive: 0.016 | inactive: -0.058 | inactive: -0.022
DAP (UniProt P51397) | inactive: 0.007 | inactive: -0.033 | inactive: 0.016 | inactive: -0.017 | inactive: 0.025 | inactive: 0.05 | inactive: -0.028 | inactive: 0.005 | inactive: 0.012 | inactive: 0.032 | inactive: -0.044 | inactive: 0.049 | inactive: 0.013 | inactive: 0.05 | inactive: -0.005 | inactive: -0.058 | inactive: -0.018 | inactive: -0.013 | inactive: 0.017 | inactive: -0.036
CTSA (UniProt P10619) | active: -0.595 | inactive: -0.04 | inactive: 0.052 | inactive: 0.015 | inactive: 0.112 | inactive: -0.001 | inactive: 0.019 | inactive: 0.005 | inactive: 0.16 | inactive: 0.007 | inactive: 0.031 | inactive: 0.092 | inactive: -0.067 | inactive: -0.013 | inactive: 0.001 | inactive: -0.03 | inactive: -0.005 | inactive: 0.044 | inactive: -0.023 | inactive: 0.134
CSPP1 (UniProt Q1MSJ5) | inactive: -0.205 | inactive: -0.055 | inactive: 0.002 | inactive: 0.016 | inactive: 0.025 | inactive: -0.046 | inactive: -0.032 | inactive: -0.017 | inactive: 0.006 | inactive: 0.016 | inactive: 0.014 | inactive: -0.099 | inactive: -0.058 | inactive: -0.064 | inactive: -0.012 | inactive: 0.015 | inactive: 0.028 | inactive: 0.02 | inactive: 0.023 | inactive: -0.072
DCTN3 (UniProt O75935) | inactive: 0.004 | inactive: 0.013 | inactive: -0.018 | inactive: 0.016 | inactive: -0.102 | inactive: 0.025 | inactive: 0.002 | inactive: 0.04 | inactive: 0.015 | inactive: 0.019 | inactive: -0.054 | inactive: -0.03 | inactive: -0.068 | inactive: -0.049 | inactive: 0.043 | inactive: 0.023 | inactive: 0.09 | inactive: 0.048 | inactive: -0.002 | inactive: -0.016
DCUN1D1 (UniProt Q96GG9) | inactive: -0.083 | inactive: 0.026 | inactive: -0.025 | inactive: -0.018 | inactive: -0.047 | inactive: 0 | inactive: 0.008 | inactive: 0.03 | inactive: -0.059 | inactive: 0.015 | inactive: -0.024 | inactive: -0.048 | inactive: -0.102 | inactive: -0.01 | inactive: 0.016 | inactive: 0.002 | inactive: 0.054 | inactive: 0.002 | inactive: -0.098 | inactive: -0.02
CTU2 (UniProt Q2VPK5) | inactive: -0.038 | inactive: 0.013 | inactive: -0.012 | inactive: 0.004 | inactive: -0.101 | inactive: -0.041 | inactive: 0.032 | inactive: 0.071 | inactive: -0.044 | inactive: 0.052 | inactive: -0.035 | inactive: -0.067 | inactive: -0.098 | inactive: 0.136 | inactive: 0.006 | inactive: 0.024 | inactive: 0.011 | inactive: 0.016 | inactive: -0.037 | inactive: 0.008
CTTN (UniProt Q14247) | inactive: -0.035 | inactive: -0.064 | inactive: 0.06 | inactive: 0.011 | inactive: 0.044 | inactive: 0.028 | inactive: 0.006 | inactive: -0.012 | inactive: 0.008 | inactive: 0.03 | inactive: 0.009 | inactive: -0.025 | inactive: 0.005 | inactive: -0.006 | inactive: -0.054 | inactive: -0.043 | inactive: 0.003 | inactive: 0.011 | inactive: -0.064 | inactive: 0
CST3 (UniProt P01034) | inactive: 0.034 | inactive: -0.04 | inactive: 0.142 | inactive: -0.001 | inactive: 0.148 | inactive: 0.014 | inactive: 0.007 | inactive: -0.091 | inactive: 0.077 | inactive: -0.037 | inactive: -0.137 | inactive: 0.079 | inactive: 0.133 | inactive: -0.017 | inactive: -0.077 | inactive: -0.134 | inactive: -0.001 | inactive: 0.074 | inactive: -0.015 | inactive: -0.015
CUL3 (UniProt Q13618) | inactive: -0.026 | inactive: 0.03 | inactive: -0.011 | inactive: -0.018 | inactive: -0.01 | inactive: -0.013 | inactive: 0.039 | inactive: 0.018 | inactive: 0.001 | inactive: 0.045 | inactive: -0.025 | inactive: -0.036 | inactive: -0.04 | inactive: -0.015 | inactive: 0.008 | inactive: 0.012 | inactive: 0.024 | inactive: -0.007 | inactive: -0.014 | inactive: 0.015
CYB5R3 isoform 3 (UniProt P00387) | inactive: -0.047 | inactive: -0.038 | inactive: -0.013 | inactive: 0.001 | inactive: 0.019 | inactive: -0.028 | inactive: 0.008 | inactive: 0.017 | inactive: -0.011 | inactive: 0.031 | inactive: -0.045 | inactive: -0.046 | inactive: -0.02 | inactive: -0.053 | inactive: 0 | inactive: -0.009 | inactive: -0.013 | inactive: -0.015 | inactive: -0.027 | inactive: -0.048
CYFIP2 (UniProt Q96F07) | inactive: -0.048 | inactive: 0.016 | inactive: -0.009 | inactive: -0.058 | inactive: -0.11 | inactive: -0.054 | inactive: 0.001 | inactive: 0.002 | inactive: 0.022 | inactive: 0.071 | inactive: -0.056 | inactive: -0.009 | inactive: -0.154 | inactive: -0.055 | inactive: 0 | inactive: 0.055 | inactive: -0.007 | inactive: 0.005 | inactive: -0.001 | inactive: -0.027

A section taken from the entries so far, as a working copy:
Target | log2 fold change (bafetinib) | log2 fold change [1] | log2 fold change (nilotinib) | log2 fold change [2] | log2 fold change (dasatinib) | log2 fold change [3] | log2 fold change [4] | log2 fold change [5] | log2 fold change (tipifarnib) | log2 fold change (mubritinib) | log2 fold change [6] | log2 fold change [7] | log2 fold change [8] | log2 fold change [9] | log2 fold change (entinostat) | log2 fold change (vorinostat) | log2 fold change (citarinostat) | log2 fold change (silmitasertib) | log2 fold change [10] | log2 fold change [11]
DCAKD (UniProt Q8WVC6) | inactive: -0.165 | inactive: -0.008 | inactive: -0.11 | inactive: -0.075 | inactive: -0.024 | inactive: 0.107 | inactive: 0.012 | inactive: 0.02 | inactive: 0.029 | inactive: -0.053 | inactive: -0.043 | inactive: -0.059 | inactive: -0.078 | inactive: 0.026 | inactive: -0.051 | inactive: 0.009 | inactive: 0.003 | inactive: -0.009 | inactive: -0.045 | inactive: -0.081
CYB5B, A0A499FJ32 | inactive: 0.07 | inactive: 0.025 | inactive: -0.111 | inactive: 0.112 | inactive: 0.089 | inactive: -0.06 | inactive: 0.03 | inactive: 0.032 | inactive: -0.284 | inactive: -0.019 | inactive: 0.004 | inactive: 0.013 | inactive: 0.095 | inactive: 0.005 | inactive: 0.032 | inactive: -0.02 | inactive: -0.087 | inactive: 0.023 | inactive: 0.005 | inactive: -0.097
